Reference: PubChem BioAssay AID504648 (National Center for Advancing Translational Sciences (NCATS), 2011)
About 610 (0.16%) of roughly 390,000 compounds were called active. Inconclusive means that the source gave no clear call. Such entries were picked first, then a sample of the others. The call rests on the fitted dose curve; in most records, active means well fitted inhibition curve with a large enough effect; inconclusive means small, poorly fitted or top-dose-only effect, or effect the other way, or another doubt; inactive means no such curve, though single readings can be large or run the other way. Potencies of inconclusive entries are doubtful fits and often do not repeat.

assay: Nrf2 qHTS screen for inhibitors: counterscreen for cytotoxicity; settings: A549 ARE-Fluc cells, CellTiter-Fluor viability, 18-24 h; series mostly up to 46 µM
How it was run: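 A549 ARE_Fluc cells in 5% FBS OPTI-MEM were exposed to compounds in concentration-response for 18-24 h at 37 deg C. Viability was read by CellTiter-Fluor fluorescence (Ex 405/Em 525) after 30 min, before the luciferase read.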
Potency means the concentration at half of the fitted maximal effect.

Row | SMILES | Potency
1 | O=C(CCS(=O)(=O)c1ccc(Br)s1)Nc1cc(C(F)(F)F)cc(C(F)(F)F)c1 | inconclusive: 16.4 µM [falling, single point]
2 | Cc1cc(C(C)(C)C)cc(S(=O)(=O)Nc2ccc(O)c(C(=O)O)c2)c1C | inactive
3 | O=c1c2ccccc2sc2nc(CCl)nn12 | inconclusive: 25.9 µM [falling, single point]
4 | O=C1N[C@@H](c2ccccc2)COC(=O)[C@@H](Cc2ccc(F)cc2)C/C=C\C[C@H]1CC(=O)N(CCO)Cc1ccccc1 | inconclusive: 20.6 µM [falling, single point]
5 | COc1ccc(-c2nc(CSCC(=O)N3CCN(c4ccccc4F)CC3)c(C)o2)cc1 | inconclusive: 23.1 µM [falling, single point]
6 | O=C(CN1C(=O)NC(Cc2c[nH]c3ccccc23)C1=O)NCCc1ccccc1 (centres undefined) | inactive
7 | COc1cccc(C(=O)Nc2nnc(C3CCCO3)s2)c1 (centres undefined) | inactive
8 | Nc1nc(NC(=O)c2ccccc2Cl)nn1-c1ccccc1 | inactive
9 | C/C(=N\NC(=O)Cc1ccc(Cl)cc1)c1ccccn1 | active: 2.31 µM
10 | C=Cc1ccc(Cn2c(C(=O)O)c(CNCCc3ccco3)c3ccc(C)cc32)cc1 | inconclusive: 18.4 µM [falling, single point]
11 | Cc1cc(OCc2cc(C(=O)N(C)C(C)c3ccccn3)no2)cc(C)c1Cl (centres undefined) | inactive
12 | Cc1ccccc1C(=O)Nc1ccc(N2CCCCCC2)cc1 | inconclusive: 1.03 µM [falling, full curve, poor fit]
13 | Cc1ccccc1Nc1c(-c2ccc(N3CCOCC3)cc2)nc2cccc(C)n12 | inconclusive: 16.4 µM [falling, single point]
14 | COc1ccc(OC)c(C=Nc2ccccc2-c2nc3ccccc3[nH]2)c1 | inconclusive: 3.66 µM [activator, partial curve, poor fit]
15 | CCCCN(CCCC)S(=O)(=O)c1ccc(NC(=O)Cc2cccs2)cc1 | inconclusive: 29.1 µM [falling, single point]
16 | CN(C)/C=C/C(=O)/C=C/c1cn(-c2ncc(C(F)(F)F)cc2Cl)c2ccccc12 | inconclusive: 20.6 µM [falling, partial curve, poor fit]
17 | C/[N+]([O-])=C\C1C(=O)CCCC1=O | inactive
18 | Nc1cccc(-c2c[nH]c3ncc(-c4cccnc4)cc23)c1 | inactive
19 | COc1ccc(-c2cn3cc(C)ccc3n2)cc1F | inactive
20 | Nc1ccc(C(=O)OCC(=O)N2c3ccccc3Sc3ccccc32)cc1[N+](=O)[O-] | inactive
21 | CCOC(=O)C1C(=O)CC(C)(O)C(C(=O)OCC)C1c1ccc(Br)cc1 (centres undefined) | inactive
22 | O=C(c1ccc(CSc2nc3ccncc3[nH]2)cc1)N1CCCCCC1 | inactive
23 | O=C(COc1ccccc1F)Nc1ccc2nc(SCC(=O)N3CCOCC3)sc2c1 | inactive

Row | SMILES | Potency
24 | Nc1ccc2c(C(F)(F)F)cc(=O)oc2c1 | inconclusive: 29.1 µM [activator, single point]
25 | O=C(Nc1nc2ccc(F)cc2s1)c1ccccn1 | inconclusive: 23.1 µM [falling, partial curve]
26 | CC(=O)Nc1ccc(C(=O)OCC(=O)N2CC3(C)CC2CC(C)(C)C3)cc1 (centres undefined) | inactive
27 | O=c1c2ccccc2c(C=Nc2ccccc2O)c(O)n1-c1nccs1 | inactive
28 | COc1ccc(C(=O)NC(c2ccccc2Cl)c2cc(Cl)c3cccnc3c2O)cc1 (centres undefined) | inconclusive: 23.1 µM [falling, single point]
29 | COc1ccccc1-n1c(-c2cc(-c3ccc(F)cc3)n[nH]2)n[nH]c1=S | inactive
30 | Cc1ccccc1-c1nc2c(=O)n(C)c(=O)nc-2n(C)n1 | active: 4.11 µM
31 | COC(=O)c1ccccc1NC(=O)Cn1cnc2cc(C)c(C)cc21 | inconclusive: 4.11 µM [activator, single point]
32 | CCC(Sc1nc2ccsc2c(=O)n1-c1ccc(Cl)c(C)c1)C(=O)NCc1ccco1 (centres undefined) | inconclusive: 18.4 µM [falling, partial curve]
33 | O=C(/C=C/c1cccc([N+](=O)[O-])c1)c1ccco1 | inconclusive: 6.51 µM [falling, single point]
34 | S=C(NCCCc1cnc[nH]1)NCCCN(Cc1ccc(Cl)c(Cl)c1)c1ccccn1 | inconclusive: 32.6 µM [falling, partial curve, poor fit]
35 | CCOC(=O)c1c(C)[nH]c(C)c1C(=O)COC(=O)/C=C/c1cccc(Cl)c1 | inactive
36 | Cc1ccc(NC(=O)CN2C(=O)c3ccccc3C2=O)c(C)c1 | inactive
37 | COc1ccc(-c2coc3cc(O)cc(O)c3c2=O)cc1 | inconclusive: 29.1 µM [falling, partial curve, poor fit]
38 | CCCCC(O)(c1ccc(CC)cc1)C(CN1CCOCC1)c1ccccc1 (centres undefined) | inconclusive: 23.1 µM [falling, single point]
39 | COc1ccccc1OCCOCCOc1c(C)cc(C)cc1Br | inconclusive: 25.9 µM [activator, single point]
40 | CCOC(=O)CSC1=NC(=O)/C(=C/c2ccc(OC)cc2)S1 | inconclusive: 18.4 µM [falling, partial curve, poor fit]
41 | CCOc1ccc2nc(NC3=NC(c4ccc(OC)cc4)CC(=O)N3)nc(C)c2c1 (centres undefined) | inconclusive: 29.1 µM [falling, single point]
42 | COc1cc(C(=O)N/N=C(\C)c2ccc3c(c2)OCO3)cc(OC)c1OC | inconclusive: 14.6 µM [falling, partial curve, poor fit]
43 | CCCc1cc(=O)[nH]c(Nc2cc(Cl)cc(Cl)c2)n1 | inconclusive: 29.1 µM [falling, single point]
44 | CN(NC(=O)c1ccccc1)c1nc2ccccc2nc1C(F)(F)F | inconclusive: 6.51 µM [falling, partial curve, poor fit]
45 | CCN(CC)CCC(=O)Nc1cccc2c1C(=O)c1ccccc1C2=O | active: 20.6 µM
46 | O=C(Nc1ccc(OC(F)(F)F)cc1)c1[nH]ncc1[N+](=O)[O-] | inconclusive: 18.4 µM [falling, single point]

Given as tab-separated lines: part of the list above
Row	SMILES	Potency
25	O=C(Nc1nc2ccc(F)cc2s1)c1ccccn1	inconclusive: 23.1 µM [falling, partial curve]
40	CCOC(=O)CSC1=NC(=O)/C(=C/c2ccc(OC)cc2)S1	inconclusive: 18.4 µM [falling, partial curve, poor fit]
45	CCN(CC)CCC(=O)Nc1cccc2c1C(=O)c1ccccc1C2=O	active: 20.6 µM

(next part)

Row | SMILES | Potency
47 | FC(F)(F)c1cccc(Nc2nc3nonc3nc2Nc2ccc(Cl)cc2)c1 | active: 2.91 µM
48 | CN(C)c1ccc(Nc2ccc([N+](=O)[O-])cn2)cc1 | inconclusive: 9.2 µM [falling, partial curve]
49 | O=C(Nc1ccc(S(=O)(=O)N2CCCCC2)cc1)C1CC(=O)N(c2ccc(Cl)cc2)C1 (centres undefined) | inconclusive: 32.6 µM [falling, partial curve, poor fit]
50 | O=C(NCc1cn(-c2ccccc2)nc1-c1ccc(F)cc1)c1cccc([N+](=O)[O-])c1 | inactive
51 | NC(=O)CC(NC(=O)c1ccccc1)c1ccc(NC2CCCCC2)c([N+](=O)[O-])c1 (centres undefined) | inconclusive: 23.1 µM [falling, partial curve, poor fit]
52 | COc1ccccc1-c1cc(C(F)(F)F)nc(S(=O)(=O)CCCC(=O)NCc2ccc(F)cc2)n1 | inconclusive: 16.4 µM [falling, partial curve, poor fit]
53 | O=c1[nH][nH]c2c(N=Cc3ccccc3O)ccc(F)c12 | inconclusive: 20.6 µM [falling, single point]
54 | Cc1c(Cl)cccc1NC(=O)CSc1nc(=O)[nH]c2c1CCC2 | inactive
55 | CSc1nc2nc3c(cn2n1)C(=O)CC(c1ccccc1)C3 (centres undefined) | inactive
56 | CC(C)=CCOc1ccc2ccc(=O)oc2c1 | inconclusive: 29.1 µM [activator, partial curve, poor fit]
57 | O=C1CCCC(O)=C1N=Nc1ccc(C(=O)O)cc1 | inconclusive: 18.4 µM [falling, single point]
58 | Cc1ccc(S(=O)(=O)/N=C2/C=C(Sc3ncn[nH]3)C(=O)c3ccccc32)cc1 | inconclusive: 29.1 µM [falling, single point]
59 | O=C(/C=C/c1cccc([N+](=O)[O-])c1)c1ccc([N+](=O)[O-])o1 | inconclusive: 29.1 µM [falling, single point]
60 | Cc1ccc(-c2nc3cccc(C)n3c2Nc2ccc3c(c2)OCO3)o1 | inconclusive: 29.1 µM [falling, single point]
61 | N#Cc1c(NC(=O)CSc2nnnn2C2CCCCC2)sc2c1CCCC2 | inactive
62 | COc1cc(/C=C2\CCCc3c2nc2ccccc2c3C(=O)O)cc([N+](=O)[O-])c1O | inconclusive: 16.4 µM [falling, single point]
63 | O=C(CCCN1C(=O)c2cccc3cccc(c23)C1=O)N1CCN(Cc2ccc3c(c2)OCO3)CC1 | inconclusive: 18.4 µM [falling, partial curve, poor fit]
64 | CS(=O)(=O)NNC(=O)C1Cc2c(ccc3ccccc23)O1 (centres undefined) | inconclusive: 6.51 µM [falling, partial curve, poor fit]
65 | Cc1ccccc1C(=O)O/N=C(\N)Cc1cccs1 | inconclusive: 32.6 µM [falling, single point]
66 | CC(=O)c1ccc(-c2cccc([C@H]3[C@@H]4C=CC[C@@H](C)[C@@H]4C(=O)N3Cc3ccccc3)c2)cc1 | inconclusive: 20.6 µM [falling, single point]
67 | CCCn1c(=O)n(C)c(=O)c2c(SCC(=O)Nc3cc(C)on3)nc(C(C)(C)C)nc21 | inconclusive: 20.6 µM [falling, partial curve, poor fit]
68 | COc1ccccc1-c1nnc(Sc2nc([N+](=O)[O-])nn2C)o1 | inconclusive: 20.6 µM [falling, single point]
69 | CC(O)[C@H]1CNCCN1CCc1cc(C(F)(F)F)cc(C(F)(F)F)c1 (some centres undefined) | inconclusive: 20.6 µM [falling, single point]
